According to patent US7622481B2, “Antibacterial compounds” (priority 2003, dated 2009):
Some results were stated once for a whole list of compounds, not compound by compound. For at least one compound, name, drawing or mass did not settle the structure.

System: S. epidermidis CL7, S. aureus WCUH29, S. pneumoniae 1629, S. pyogenes CN10, H. influenzae ATCC 49247, E. faecalis 2, M. catarrhalis Ravasio, E. coli 7623
Experiment: MIC of test compounds against various organisms
Assay type: cell-based
Conditions: versus all these organisms (panel of 8 strains)
Description: The MIC (μg/ml) of test compounds against various organisms was determined including:
S. epidermidis CL7, S. aureus WCUH29, S. pneumoniae 1629, S. pyogenes CN10, H. influenzae ATCC 49247, E. faecalis 2, M. catarrhalis Ravasio, E. coli 7623.

COc1cnc2cccc(NC(=O)C3(O)CCC(NCc4cc5c(cn4)OCCO5)CC3)c2n1.Cl (stereo not shown) [Example 41, t-4[(2,3-Dihydro-[1,4]dioxino[2,3-c]pyridin-7-ylmethyl)-amino]-1-hydroxy-r-cyclohexanecarboxylic acid (3-methoxy-quinoxalin-5-yl)-amide hydrochloride]
MIC: ≤ 2 µg/mL
